Test results: PMC12139081
These are yes or no findings as the source states them, for the method shown. Binding seen in cells or lysates may run through a third protein. Some entries that bind do so weakly or less than the wild type. Sequences can lack the tags named with a protein.

By UniProt entry, the sequences of proteins in these tests, tags left out.
UniProt P05787: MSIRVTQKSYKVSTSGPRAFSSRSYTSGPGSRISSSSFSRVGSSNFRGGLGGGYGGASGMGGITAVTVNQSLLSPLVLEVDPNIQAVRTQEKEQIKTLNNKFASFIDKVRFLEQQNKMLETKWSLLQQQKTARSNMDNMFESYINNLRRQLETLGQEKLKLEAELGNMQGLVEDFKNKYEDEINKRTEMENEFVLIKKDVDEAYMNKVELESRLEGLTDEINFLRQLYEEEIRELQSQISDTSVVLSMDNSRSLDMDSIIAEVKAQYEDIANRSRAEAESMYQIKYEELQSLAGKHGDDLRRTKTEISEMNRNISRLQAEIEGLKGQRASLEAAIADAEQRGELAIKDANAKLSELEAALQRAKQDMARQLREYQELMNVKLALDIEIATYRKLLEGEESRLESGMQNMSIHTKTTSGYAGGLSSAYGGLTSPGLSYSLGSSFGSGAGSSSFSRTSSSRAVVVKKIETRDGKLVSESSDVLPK

B1: V5-tagged SCHAD (WT SCHAD-V5) (enzyme, UniProt Q16836 13-314)
chain: SSSSTASASAKKIIVKHVTVIGGGLMGAGIAQVAAATGHTVVLVDQTEDILAKSKKGIEESLRKVAKKKFAENLKAGDEFVEKTLSTIATSTDAASVVHSTDLVVEAIVENLKVKNELFKRLDKFAAEHTIFASNTSSLQITSIANATTRQDRFAGLHFFNPVPVMKLVEVIKTPMTSQKTFESLVDFSKALGKHPVSCKDTPGFIVNRLLVPYLMEAIRLYERGDASKEDIDTAMKLGAGYPMGPFELLDYVGLDTTKFIVDGWHEMDAENPLHQPSPSLNKLVAENKFGKKTGEGFYKYK
B2: endogenous SCHAD protein of HEK293 cells (enzyme, UniProt Q16836 13-314)
chain: B1 chain

Target: endogenous keratin 8 (K8) of HEK293 cells (human (endogenous in HEK293)) (UniProt P05787)
Experiment: co-IP; HEK293 cells transfected with V5-tagged SCHAD, crosslinked with 1% paraformaldehyde for 10 min; lysate incubated overnight at 4 °C with agarose beads coupled to the M20 anti-K8 antibody; control agarose resin as negative control; western blot for SCHAD (HPA039588) and K8 (M20)

Row | Binder | binding
1 | B1 | binds
2 | B2 | binds
